Assay results published in PubChem BioAssay AID504444 (National Center for Advancing Translational Sciences (NCATS), 2011).
Hit rate of the full screen: of about 360,000 compounds, about 7,500 (2.1%) were called active. The shares of active, inactive and inconclusive entries below differ from those in the screen. The call rests on the fitted dose curve; in most records, active means well fitted inhibition curve with a large enough effect; inconclusive means small, poorly fitted or top-dose-only effect, or effect the other way; inactive means flat fitted curve, though single readings scatter. Where the call is inconclusive, the potency comes from a doubtful curve fit.
On the % scale 0 is the no-effect control and ±100 the full control effect; potency means the concentration at half of the fitted maximal effect.

Assay: Nrf2 qHTS screen for inhibitors; further: nearly all actives have a fitted effect of over 60% in size
Conditions: A549 ARE-Fluc reporter, luciferase luminescence, 18-24 h; activity change, negative = inhibition: at 46 µM (top of the series)
In short: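 A549 ARE_Fluc cells, 5000/well, 5% FBS OPTI-MEM; compounds in dose-response, 18-24 h at 37 °C/5% CO2; CellTiter-Fluor viability read (Ex 405/Em 525), then BugLite luciferase luminescence = Nrf2 activity.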
With `CCN(CC)C(=O)c1ccc2c3c(cccc13)C(=O)N(CCc1ccc(OC)c(OC)c1)C2=O` the Potency was inconclusive: 20.6 µM [falling, partial curve, poor fit].
With `CCCn1c(SCC(=O)Nc2cccc(C(=O)OCC)c2)nnc1-c1ccoc1C` the Potency was inconclusive: 10.3 µM [falling, partial curve].
In the case of `COc1ccc(OC)c(-c2noc(N3CCN(c4cccc(C(F)(F)F)c4)CC3)n2)c1`, the Potency is reported as inconclusive: 29.1 µM [activator, single point].
With `C=CCN(c1ccccc1OC)S(=O)(=O)c1cccc(C(=O)NC2=NCCS2)c1` the Potency was inconclusive: 29.1 µM [falling, single point].
For `Cc1cccc(-n2c3nc(=O)[nH]c(=O)c-3cc3ccc(Cl)cc32)c1C`, the Potency was inconclusive: 16.4 µM [falling, partial curve, poor fit].
For `O=C(CC1(O)C(=O)Nc2ccccc21)c1ccccc1O` (stereo not drawn), the “activity change, negative = inhibition” value was inactive: -9.99%.
In the case of `Cc1nn(CCCC(=O)Nc2c(F)cc(F)cc2Br)c(C)c1[N+](=O)[O-]`, the Potency is reported as inconclusive: 29.1 µM [falling, single point].
For `CCC(Sc1nc2ccsc2c(=O)n1-c1ccc(Cl)c(C)c1)C(=O)NCc1ccco1` (stereo not drawn), the Potency was inconclusive: 9.2 µM [falling, single point].
With `CCOc1ccccc1NC(=O)Cn1nnc(C(=O)NCc2ccc(F)cc2)c1N` the “activity change, negative = inhibition” value was inactive: -14.1%.
With `CCC(Oc1ccccc1)C(=O)N1CCC(C(N)=O)CC1` (stereo not drawn) the Potency was inconclusive: 23.1 µM [activator, partial curve, poor fit].
For `COC(=O)C1=C(C(=O)OC)[C@@H]2N(C)c3ccc(OC)cc3[C@@]23C[C@@H](C(=O)OC)N(C(=O)c2ccc(Br)cc2)C3=N1`, the Potency was inconclusive: 23.1 µM [falling, single point].
In the case of `O=[N+]([O-])c1ccc(NC(=S)N2CCc3ccccc32)cc1`, the Potency is reported as inconclusive: 29.1 µM [falling, single point].
In the case of `CC(C)c1ccccc1NC(=O)COc1ccc(C(=O)NCCc2ccccc2)cc1`, the Potency is reported as inconclusive: 10.3 µM [falling, partial curve, poor fit].
For `O=C(CCCOc1ccc(Cl)cc1Cl)Nc1ccccn1`, the Potency was inconclusive: 16.4 µM [activator, partial curve].
In the case of `O=C(Nc1ccc(Br)cc1)Nc1ccccc1F`, the Potency is reported as inconclusive: 4.61 µM [activator, partial curve].
For `O=C(O)CCCN1C(=O)/C(=C\c2ccc(-c3nc4ccccc4s3)o2)SC1=S`, the “activity change, negative = inhibition” value was inactive: -28.5%.
In the case of `COC(=O)N/N=C(\C)c1ccc(OC(F)F)cc1`, the Potency is reported as inconclusive: 7.31 µM [activator, partial curve].
For `NC(=O)c1ccsc1NC(=O)c1nc(-c2ccccc2)n(-c2ccccc2)n1`, the Potency was inconclusive: 8.2 µM [falling, partial curve].
With `O=C(N/N=C/c1cc2ccccc2nc1Cl)[C@H]1C[C@@H]1c1ccccc1` the Potency was inconclusive: 25.9 µM [falling, single point].
For `COc1ccc(NC(=O)c2nc3nccc(C)n3n2)cn1`, the Potency was inconclusive: 5.8 µM [activator, full curve].
With `CC(C)(C)c1ccc(C(=O)NCc2ccccc2)cc1` the Potency was inconclusive: 29.1 µM [activator, single point].
For `CN(C)S(=O)(=O)c1ccc(C(=O)Nc2ccc(F)cc2F)cc1`, the Potency was inconclusive: 20.6 µM [falling, partial curve, poor fit].
With `CCC(C(=O)NC1CCC(C)CC1)n1nc(C)c2sc3ccccc3c2c1=O` (stereo not drawn) the Potency was inconclusive: 29.1 µM [activator, single point].
For `c1ccc(-c2nc(CSc3nnc(-c4cccs4)o3)cs2)cc1`, the Potency was inconclusive: 32.6 µM [falling, single point].
In the case of `N=c1oc2ccccc2cc1C(=O)Nc1cccc(F)c1`, the Potency is reported as inconclusive: 0.82 µM [activator, full curve, poor fit].
In the case of `COc1cccc(C(=O)N(CN2CCCC2=O)c2cccc(Cl)c2)c1OC`, the Potency is reported as inconclusive: 1.84 µM [falling, full curve, poor fit].
In the case of `COc1ccc(-c2csc3ncnc(N4CCN(S(=O)(=O)c5ccc(C(C)=O)cc5)CC4)c23)cc1`, the Potency is reported as inconclusive: 25.9 µM [falling, partial curve, poor fit].
For `O=C(NCc1ccc2c(c1)OCO2)c1cc(-c2ccccc2)c(N2CCOCC2)s1`, the Potency was inconclusive: 16.4 µM [falling, single point].
With `CC(C)C(=O)NCCc1nc(-c2ccccc2)no1` the Potency was inconclusive: 25.9 µM [activator, partial curve, poor fit].
For `O=C(CCCOc1ccc(Cl)cc1Cl)N/N=C/c1ccccc1O`, the “activity change, negative = inhibition” value was inactive: -24.8%.
In the case of `CC1Cc2ccccc2N1S(=O)(=O)c1cccs1` (stereo not drawn), the Potency is reported as inconclusive: 29.1 µM [falling, single point].
For `COc1ccc(CNC(=O)C(c2ccncc2)N(C(=O)Cc2cccs2)c2ccccc2C)cc1` (stereo not drawn), the Potency was inconclusive: 0.58 µM [falling, partial curve, poor fit].
With `CC(=O)Nc1ccc(S(=O)(=O)NNC(=S)NCc2ccco2)cc1` the Potency was inconclusive: 3.66 µM [activator, full curve, poor fit].
With `COc1ccc(CN(C(=O)CCC(=O)Nc2cc(C)on2)C(C(=O)NC(C)(C)C)c2cccc(OC)c2OC)cc1` (stereo not drawn) the Potency was inconclusive: 14.6 µM [activator, single point].
For `Cc1cccc(OCCOCCSc2ncccn2)c1`, the Potency was inconclusive: 23.1 µM [activator, single point].
With `CC(NC(=O)CCn1c(=S)[nH]c2ccsc2c1=O)c1ccccc1` (stereo not drawn) the Potency was inconclusive: 14.6 µM [falling, partial curve, poor fit].
For `COc1ccc(Cl)cc1NC(=O)NCc1ccccn1`, the Potency was inconclusive: 10.3 µM [falling, partial curve, poor fit].
With `COc1ccc([N+](=O)[O-])cc1NC(=O)Cn1ccc(C(F)(F)F)n1` the Potency was inconclusive: 20.6 µM [falling, partial curve, poor fit].
In the case of `Cc1cccc(C(=O)N2CC(=O)Nc3ccc(F)cc3C2c2ccc(F)cc2)c1` (stereo not drawn), the Potency is reported as inconclusive: 18.4 µM [falling, partial curve, poor fit].
For `CC(C)(C)n1ncc2c(=O)n(Cc3ccccc3Br)cnc21`, the Potency was inconclusive: 18.4 µM [falling, single point].
In the case of `Cc1ccc(S(=O)(=O)N2CCCC(C(=O)N(Cc3cccs3)C3CC3)C2)cc1` (stereo not drawn), the Potency is reported as inconclusive: 23.1 µM [falling, single point].
With `COc1cc2c(cc1OC)C(C)N(C(=O)c1cc3c(C)cc(C)cc3[nH]1)CC2` (stereo not drawn) the Potency was active: 14.6 µM.
In the case of `COc1ccc(OC)c(NC(=O)c2cc(C3CC3)nc3c2c(C)nn3-c2ccc(C)cc2)c1`, the “activity change, negative = inhibition” value is reported as inactive: -18.6%.
With `CC(C)c1ccc(NC(=O)CN2C(=O)NC3(CCCC3)C2=O)cc1` the Potency was inconclusive: 25.9 µM [activator, partial curve, poor fit].
For `COc1ccc(N(CC(=O)Nc2cc(C)ccc2C)S(=O)(=O)c2c(C)noc2C)cc1`, the Potency was inconclusive: 23.1 µM [falling, partial curve, poor fit].
For `O=C(Cn1cc(SCc2ccccc2F)c2ccccc21)N1CCCCC1`, the “activity change, negative = inhibition” value was inactive: 15.3%.
With `CC(Sc1nc(-c2ccccc2)cc(C(F)(F)F)n1)C(=O)NCc1ccco1` (stereo not drawn) the Potency was inconclusive: 0.92 µM [falling, full curve, poor fit].
In the case of `Cc1ccc(/C=N/NC(=O)CCSc2ccccc2)cc1`, the “activity change, negative = inhibition” value is reported as inactive: -4.39%.
In the case of `Fc1cccc(CSc2nc3ncccc3[nH]2)c1`, the Potency is reported as inconclusive: 8.2 µM [activator, partial curve].
For `O=C(c1ccco1)N1CCN(Cc2nc3ccccc3c(=O)n2-c2ccc(F)cc2)CC1`, the Potency was inconclusive: 2.31 µM [falling, full curve, poor fit].
In the case of `CCCNC(=O)Nc1nc2ccccc2s1`, the “activity change, negative = inhibition” value is reported as inactive: 7.15%.
In the case of `COC(=O)C(C)N(C(=O)c1cccc2ccccc12)c1c(C)cccc1C` (stereo not drawn), the Potency is reported as active: 18.4 µM.
In the case of `CC(=O)OCC1=C(C(=O)O)N2C(=O)C(NC(=O)C(C)Cn3cc(Cl)cn3)C2SC1` (stereo not drawn), the Potency is reported as inconclusive: 29.1 µM [activator, partial curve, poor fit].
For `CC1C(=O)NN=C1C(=O)N/N=C\C(Br)=C\c1ccccc1` (stereo not drawn), the Potency was inconclusive: 13 µM [falling, single point].
For `Cc1cc(C(=O)O)ccc1-n1c(C)cc(/C=C2\SC(=O)NC2=O)c1C`, the “activity change, negative = inhibition” value was inactive: -13.6%.
With `C/C=C\C=C/C(=O)Nc1cccc(C2=NOC3(C2)C[C@@H](C(N)=O)N(C(=O)COc2ccc(Cl)cc2)C3)c1` (stereo partly drawn) the “activity change, negative = inhibition” value was inactive: 15.3%.
For `Cc1ccc2cc(CCNC(=O)C(=O)c3c[nH]c4ccccc34)c(=O)[nH]c2c1`, the Potency was inconclusive: 20.6 µM [falling, single point].
For `Cc1cccc(CN2C(=O)[C@H]3Cc4c([nH]c5ccccc45)C(C)(C)N3C2=O)c1`, the Potency was inconclusive: 20.6 µM [falling, single point].
For `CCCc1cc(C(=O)N2CCC(n3nccc3NC(=O)c3ccc(OC)cc3)CC2)no1`, the Potency was inconclusive: 9.2 µM [activator, partial curve, poor fit].
For `COc1ccc(Cl)cc1NC(=O)C1CCN(S(=O)(=O)c2ccc3c(c2)CC(C)N3C(C)=O)CC1` (stereo not drawn), the Potency was inconclusive: 29.1 µM [falling, single point].
In the case of `COc1ccc(CS(=O)(=O)/C(Cl)=C(/Cl)C(=O)Nc2ccc(OC)nc2)cc1`, the Potency is reported as active: 16.4 µM.
With `CCOC(=O)N1CCN(c2cc(=O)n(-c3cccc(C)c3)c(=O)[nH]2)CC1` the “activity change, negative = inhibition” value was inactive: -6.37%.
In the case of `Cc1nnc(SCC(=O)Nc2nc(-c3ccccc3)cs2)n1N`, the Potency is reported as inconclusive: 2.59 µM [activator, full curve, poor fit].
